In assay [1] the target is integrin β1 (human (endogenous in SKMEL28 and MDA-MB-231)) (UniProt P05556). Briefly: proximity ligation; in situ PLA (Duolink) on fixed cultured SKMEL28 and MDA-MB-231 cells on chamber slides, transfected with control or Kindlin-3 siRNA; confocal microscopy.
Assay [2] concerns the target integrin β5 (human (endogenous in SKMEL28 and MDA-MB-231)) (UniProt P18084). The assay is described as above.

The chains behind the UniProt entries cited, without tags or fusion partners. Residues count along the entry.
UniProt P05556: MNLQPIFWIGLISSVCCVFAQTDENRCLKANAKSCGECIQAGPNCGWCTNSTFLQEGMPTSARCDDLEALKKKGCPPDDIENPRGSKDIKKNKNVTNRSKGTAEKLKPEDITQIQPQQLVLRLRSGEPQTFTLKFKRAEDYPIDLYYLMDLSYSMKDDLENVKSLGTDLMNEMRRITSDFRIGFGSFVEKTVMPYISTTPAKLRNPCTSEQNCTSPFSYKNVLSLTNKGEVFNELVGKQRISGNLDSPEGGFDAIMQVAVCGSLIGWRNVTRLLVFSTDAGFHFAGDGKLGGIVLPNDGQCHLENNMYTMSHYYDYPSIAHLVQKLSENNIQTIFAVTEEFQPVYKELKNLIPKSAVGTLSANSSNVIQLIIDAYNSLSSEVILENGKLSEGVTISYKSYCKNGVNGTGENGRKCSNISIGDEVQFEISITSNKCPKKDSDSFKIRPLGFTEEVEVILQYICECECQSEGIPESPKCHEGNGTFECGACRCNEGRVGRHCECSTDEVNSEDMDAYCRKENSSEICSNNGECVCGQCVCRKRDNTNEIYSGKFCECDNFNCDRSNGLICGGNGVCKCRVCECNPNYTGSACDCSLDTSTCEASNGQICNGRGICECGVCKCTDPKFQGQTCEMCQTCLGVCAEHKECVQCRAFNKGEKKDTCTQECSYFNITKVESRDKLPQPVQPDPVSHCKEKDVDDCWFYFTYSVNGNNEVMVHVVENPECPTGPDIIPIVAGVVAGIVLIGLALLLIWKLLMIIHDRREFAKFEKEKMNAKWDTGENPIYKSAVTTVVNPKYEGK
UniProt P18084, residues 24-799: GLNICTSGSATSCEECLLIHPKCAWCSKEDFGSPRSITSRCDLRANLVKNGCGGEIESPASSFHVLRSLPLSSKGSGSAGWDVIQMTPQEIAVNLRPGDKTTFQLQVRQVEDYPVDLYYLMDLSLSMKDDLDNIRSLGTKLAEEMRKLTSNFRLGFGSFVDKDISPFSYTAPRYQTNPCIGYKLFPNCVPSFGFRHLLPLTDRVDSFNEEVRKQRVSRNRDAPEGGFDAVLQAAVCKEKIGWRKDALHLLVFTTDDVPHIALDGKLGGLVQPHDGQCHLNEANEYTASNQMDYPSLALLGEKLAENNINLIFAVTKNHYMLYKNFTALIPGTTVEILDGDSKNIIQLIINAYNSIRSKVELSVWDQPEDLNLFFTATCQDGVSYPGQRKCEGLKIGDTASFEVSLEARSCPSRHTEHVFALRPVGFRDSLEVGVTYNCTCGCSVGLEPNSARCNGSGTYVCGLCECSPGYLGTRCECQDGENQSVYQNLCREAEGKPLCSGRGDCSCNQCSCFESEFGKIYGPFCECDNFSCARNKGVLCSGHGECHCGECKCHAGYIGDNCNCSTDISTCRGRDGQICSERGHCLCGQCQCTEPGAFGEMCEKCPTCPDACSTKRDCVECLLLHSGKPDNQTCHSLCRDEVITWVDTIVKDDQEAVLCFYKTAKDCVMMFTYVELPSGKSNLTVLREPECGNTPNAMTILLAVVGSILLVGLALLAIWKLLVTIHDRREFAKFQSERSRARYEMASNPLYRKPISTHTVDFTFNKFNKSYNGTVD

These are yes or no findings as the source states them, for the method shown. Binding seen in cells or lysates may run through a third protein. Some entries that bind do so weakly or less than the wild type.

For Kindlin-3 (from UniProt Q86UX7 1-667), the binding result in assay [1] and in assay [2] was “binds” throughout.

The values above are taken from PMC4253411.
